In PubChem BioAssay AID540276 (National Center for Advancing Translational Sciences (NCATS), 2011):
Hit rate of the full screen: of about 300,000 compounds, about 5,400 (1.8%) were called active. The inconclusive results got no clear call from the source; some entries with a clear call stand among them for comparison. Calls follow the shape of the full dose curve; tested in HEK293 cells. Potencies of inconclusive entries are doubtful fits and often do not repeat.

assay: qHTS for inhibitors of binding or entry into cells for Marburg Virus; conditions: Marburg virus pseudotyped entry inhibition, cell reporter; activity change, negative = inhibition: at 37.8 µM (top of the series) unless noted
% is scaled to controls: 0 for no effect and ±100 for the full control effect; potency is read from the fitted curve at half-maximal effect.

Structure (SMILES)	Potency	activity change, negative = inhibition
Cc1cc(C)cc(OCC(=O)OCC(=O)c2cc(C)n(C3CC3)c2C)c1	inconclusive: 0.282 µM [activator, full curve]	
Cc1ccc(-c2cc(C(=O)N3CCOCC3)c3ccccc3n2)o1		inactive: 2.73% [at 46.1 µM]
COc1ccc(-c2cc(-c3nnc(-c4ccncc4)o3)c3ccccc3n2)cc1		inactive: -2.67%
N#Cc1ccccc1OCC(=O)Nc1ccc2c(c1)OCCCO2		inactive: -19% [at 46.1 µM]
Cn1/c(=N/NC(=O)c2ccccc2Br)sc2ccccc21	inconclusive: 10 µM [activator, partial curve]	
NC(=O)COC(=O)c1ccccc1Nc1ccc(SC(F)F)cc1	inconclusive: 1.26 µM [activator, single point]	
CCc1nc(SCC(=O)O)c2c3c(sc2n1)COC(C)(C)C3	inconclusive: 1.26 µM [inhibitor, single point]	
NC(=O)CN1CCN(Cc2ccc3c(c2)OCO3)CC1	inconclusive: 12.6 µM [activator, single point]	
CCN(CC)S(=O)(=O)c1cccc(NC(=O)CNc2cccc(S(=O)(=O)N3CCCC3)c2)c1	inconclusive: 1.26 µM [inhibitor, partial curve, poor fit]	
Nc1nc(Sc2c([N+](=O)[O-])cc(C(F)(F)F)cc2[N+](=O)[O-])n[nH]1	inconclusive: 25.1 µM [inhibitor, single point]	
N#Cc1nn(-c2ccccc2)nc1N1CCCCC1	inconclusive: 1.26 µM [inhibitor, single point]	
Cc1ccc(-c2cc(C(=O)NCc3cccnc3)no2)cc1		inactive: 2.36%
COc1ccc(CCNC(=S)N2CCC(C(=O)c3ccc(F)cc3)CC2)cc1OC	inconclusive: 25.9 µM [inhibitor, partial curve, poor fit]	
Cc1noc(C)c1C(=O)Nc1nc(-c2ccc(F)c(F)c2)cs1		inactive: 2.94%
COc1ccccc1C(=O)COC(=O)c1cc([N+](=O)[O-])ccc1N1CCOCC1	inconclusive: 10 µM [inhibitor, partial curve, poor fit]	
CC(=O)Oc1ccc(-c2nc3c(C)cccc3c(=O)o2)cc1	inconclusive: 1.41 µM [inhibitor, full curve]	
CCNC(=S)N/N=C(\C)c1cc2ccccc2o1		inactive: 24.8%
O=c1[nH]c(CN2CCN(S(=O)(=O)/C=C/c3ccccc3)CC2)nc2cc(Cl)ccc12	inconclusive: 12.6 µM [inhibitor, partial curve]	
Cc1ccc(/C=N/NC(=O)CSc2nnc(-c3ccc(Cl)cc3)n2-c2ccccc2)o1	inconclusive: 15.8 µM [inhibitor, single point]	
COc1ccc(-n2nnc3c(=O)n(CC(=O)Nc4cc(C)on4)cnc32)cc1	inconclusive: 2.24 µM [activator, partial curve, poor fit]	
CC1CC(C)CN(C(=O)C(C)N2CCN(S(=O)(=O)c3ccc(Br)s3)CC2)C1 (configuration not stated)	inconclusive: 17.8 µM [inhibitor, partial curve, poor fit]	

As a short view, part of the list above.
Structure (SMILES)	Potency	activity change, negative = inhibition
COc1ccc(-c2cc(-c3nnc(-c4ccncc4)o3)c3ccccc3n2)cc1		inactive: -2.67%
N#Cc1ccccc1OCC(=O)Nc1ccc2c(c1)OCCCO2		inactive: -19% [at 46.1 µM]

The results go on:

Structure (SMILES)	Potency	activity change, negative = inhibition
O=C(CCC1COc2ccccc2O1)Nc1ncccc1O (configuration not stated)	inconclusive: 3.55 µM [activator, single point]	
CCOC(=O)C(C)On1c(-c2cccc(Cl)c2)nc2ccc([N+](=O)[O-])cc21 (configuration not stated)		inactive: -21.3%
COc1ccc(NC(=O)c2cc3c(s2)CCC(C)C3)cc1S(=O)(=O)N1CCOCC1 (configuration not stated)	inconclusive: 7.94 µM [inhibitor, partial curve, poor fit]	
O=C(/C=C/c1ccccc1)NCCOc1ccccc1	inactive	
CCc1nccn1S(=O)(=O)c1cccc([N+](=O)[O-])c1	inconclusive: 0.631 µM [inhibitor, full curve]	
Cc1ccc(Nc2c(-c3ccccc3)nc3cnccn23)cc1	inconclusive: 1.78 µM [inhibitor, partial curve, poor fit]	
CN(c1ccc(C(=O)Nc2cccc([N+](=O)[O-])c2)cc1)S(C)(=O)=O	inconclusive: 35.5 µM [inhibitor, single point]	
O=C(CCn1cccc1)Nc1ccc(F)cc1	inconclusive: 0.326 µM [inhibitor, partial curve, poor fit]	
Cc1cc(C(=O)CN2C(=O)NC(CC(C)C)C2=O)c(C)n1C1CC1 (configuration not stated)	inconclusive: 6.31 µM [activator, partial curve, poor fit]	
O=C(CNC(=O)OCc1ccccc1)OC(c1ccccc1)c1ccccc1	inconclusive: 22.4 µM [inhibitor, single point]	
O=S(=O)(c1ccccc1)c1nc(-c2ccccc2Cl)oc1NCCCN1CCOCC1	inconclusive: 35.5 µM [inhibitor, single point]	
O=C(COC(=O)C1CCN(c2ccc(C(F)(F)F)cn2)CC1)c1ccc(Cl)cc1		inactive: 6.21%
NS(=O)(=O)c1ccc(CCNC(=O)c2ccc(Cl)c(S(=O)(=O)N3CCCCC3)c2)cc1	inconclusive: 20 µM [inhibitor, partial curve, poor fit]	
COC(=O)C(NC(=O)CCc1c(C)nc2c(-c3ccccc3)c(C)nn2c1C)C(C)C (configuration not stated)		inactive: 2.73% [at 46.1 µM]
CC(=O)c1ccc(Nc2cc(C)nc3ccccc23)cc1	active: 2.82 µM	
COc1ccc(-c2[nH]ncc2CN2CCCOc3c(cccc3OC)C2)c(OC)c1	inconclusive: 6.31 µM [inhibitor, single point]	
Oc1cccc(-c2nc3c4c(ncn3n2)-c2ccccc2CC42CCCC2)c1	active: 23.1 µM	
COc1ccc2c(c1)[C@@H](NC(=O)C(F)(F)F)[C@@H]1CCCC[C@]21c1ccccc1	inconclusive: 2.66 µM [activator, partial curve, poor fit]	
CCOc1cc(/C=N/NC(=O)C(=O)NC)cc(Br)c1O	inconclusive: 3.98 µM [activator, partial curve, poor fit]	
CCN(CC)CCCNc1sc(S(=O)(=O)c2ccccc2)nc1S(=O)(=O)c1ccc(Cl)cc1	inconclusive: 35.5 µM [inhibitor, single point]	
COc1ccc(C)cc1NC(=O)NC(C)c1c(-n2cccc2)sc(C)c1C (configuration not stated)	inconclusive: 6.31 µM [inhibitor, partial curve, poor fit]	
